This is an account of results in article PMC3507880, “Rationale-Based Engineering of a Potent Long-Acting FGF21 Analog for the Treatment of Type 2 Diabetes” (PLoS ONE, 2012).

The target of experiment [1] is wild type human mature FGF21 (human) (UniProt Q9NSA1). In words: SEC; SEC-HPLC (Bio-Sil SEC-250, 2x PBS with 2% isopropyl alcohol); 65 mg/ml in 10 mM potassium phosphate, 5% sorbitol, pH 8.0; time 0; both purified. Background: SEC sorts molecules by how far they enter the pores of the column.
Experiment [2] deals with Fc-FGF21(RG) (human) (UniProt Q9NSA1). The experiment is described as above.
Experiment [3] shares this target. In words: SEC; SEC-HPLC (Bio-Sil SEC-250, 2x PBS with 2% isopropyl alcohol); 65 mg/ml in 10 mM potassium phosphate, 5% sorbitol, pH 8.0; stored at 25°C or 4°C for 2 to 9 days; high molecular weight species as % of total; both purified.
The target in experiment [4] is Fc-FGF21 (N-terminal Fc fusion of human mature FGF21, wild type) (human) (UniProt Q9NSA1). The experiment can be described thus: SEC; SEC-HPLC (Bio-Sil SEC-250, 2x PBS with 2% isopropyl alcohol); 65 mg/ml in 10 mM potassium phosphate, 5% sorbitol, pH 8.0; time 0; both purified.

Positions count from the first letter of the chain named. These are yes or no findings as the source states them, for the method shown.

B1: wild type human mature FGF21 (protein)
chain: HPIPDSSPLLQFGGQVRQRYLYTDDAQQTEAHLEIREDGTVGGAADQSPESLLQLKALKPGVIQILGVKTSRFLCQRPDGALYGSLHFDPEACSFRELLLEDGYNVYQSEAHGLPLHLPGNKSPHRDPAPRGPARFLPLPGLPPALPEPPGILAPQPPDVGSSDPLSMVGPSQGRSPSYAS
With B1, the binding result in experiment [1] is “no binding (condition: at time 0, 65 mg/ml)”.

B2: Fc-FGF21(RG) (protein)
chain: B1 chain with L98R, P171G
Consider B2, for which the binding result with Fc-FGF21(RG) (human) [2] and with Fc-FGF21(RG) (human) [3] was “no binding (tested: 65 mg/ml)” in each case.

B3: Fc-FGF21 (N-terminal Fc fusion of human mature FGF21, wild type) (Fc fusion, UniProt Q9NSA1 29-209, looked up)
chain: B1 chain
Take B3: the binding entry in experiment [4] was “no binding (condition: at time 0, 65 mg/ml)”.
